# Source: patent US20060177886A1, “Method for diagnosis of rheumatoid arthritis” (priority 2005, published 2006)
# Some entries share one result that the patent states for a list of compounds.
# Test system: spinorphin rabbit antibody (anti-spinorphin)
# Assay: Cross reaction of spinorphin analogues with the spinorphin rabbit antibody (anti-spinorphin)
# Format: binding
# Settings: % of the cross reaction of spinorphin; a cross reaction was not recognized
row,Substance,"cross reaction of anti-spinorphin exhibited by spinorphin analogues, relative to that of spinorphin"
1,VYPWT (Descripton of Artificial Sequence Synthetic Peptide) [spinorphin analogue],lower than 0.1%
2,VYP,lower than 0.1%
3,VVYP (Descripton of Artificial Sequence Synthetic Peptide) [spinorphin analogue],lower than 0.1%
4,VYPW (Descripton of Artificial Sequence Synthetic Peptide) [spinorphin analogue],lower than 0.1%
5,LVVYPW (Descripton of Artificial Sequence Synthetic Peptide) [spinorphin analogue],lower than 0.1%
6,LVVYP (Descripton of Artificial Sequence Synthetic Peptide) [spinorphin analogue],lower than 0.1%
7,YPW,lower than 0.1%
